Hit rate of the full screen: of about 390,000 compounds, about 820 (0.21%) were called active. This list was built around the results that the source calls inconclusive (neither active nor inactive); the mix of calls is not that of the screen. The call rests on the fitted dose curve; in most records, active means well fitted inhibition curve with a large enough effect; inconclusive means small, poorly fitted or top-dose-only effect, or another doubt; inactive means no such curve, though single readings can be large or run the other way. Potencies of inconclusive entries are doubtful fits and often do not repeat.
Each molecule was assayed against Histone acetyltransferase KAT2A (Homo sapiens) (UniProt Q92830) (assay: qHTS Assay for Inhibitors of GCN5L2). Details: GCN5L2 HAT assay, ThioGlo1 CoA-SH fluorescence; activity change, negative = inhibition: at 58.9 µM (top of the series) unless noted.
Method in brief: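 Fluorescence readout, Ex340nm/Em540nm: ThioGlo1 (50uM final) reacts with free CoA thiol released as 20nM GCN5L2 acetylates H3(1-25) peptide (75uM) using acetyl-CoA (70uM). Compound and enzyme sat 15 min beforehand; 20 min room-temperature reaction.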
On the % scale 0 is the no-effect control and ±100 the full control effect; potency means the concentration at half of the fitted maximal effect.

Sequences of proteins named here, by UniProt entry; tags and fusion partners are left off.
UniProt Q92830, whole entry, looked up: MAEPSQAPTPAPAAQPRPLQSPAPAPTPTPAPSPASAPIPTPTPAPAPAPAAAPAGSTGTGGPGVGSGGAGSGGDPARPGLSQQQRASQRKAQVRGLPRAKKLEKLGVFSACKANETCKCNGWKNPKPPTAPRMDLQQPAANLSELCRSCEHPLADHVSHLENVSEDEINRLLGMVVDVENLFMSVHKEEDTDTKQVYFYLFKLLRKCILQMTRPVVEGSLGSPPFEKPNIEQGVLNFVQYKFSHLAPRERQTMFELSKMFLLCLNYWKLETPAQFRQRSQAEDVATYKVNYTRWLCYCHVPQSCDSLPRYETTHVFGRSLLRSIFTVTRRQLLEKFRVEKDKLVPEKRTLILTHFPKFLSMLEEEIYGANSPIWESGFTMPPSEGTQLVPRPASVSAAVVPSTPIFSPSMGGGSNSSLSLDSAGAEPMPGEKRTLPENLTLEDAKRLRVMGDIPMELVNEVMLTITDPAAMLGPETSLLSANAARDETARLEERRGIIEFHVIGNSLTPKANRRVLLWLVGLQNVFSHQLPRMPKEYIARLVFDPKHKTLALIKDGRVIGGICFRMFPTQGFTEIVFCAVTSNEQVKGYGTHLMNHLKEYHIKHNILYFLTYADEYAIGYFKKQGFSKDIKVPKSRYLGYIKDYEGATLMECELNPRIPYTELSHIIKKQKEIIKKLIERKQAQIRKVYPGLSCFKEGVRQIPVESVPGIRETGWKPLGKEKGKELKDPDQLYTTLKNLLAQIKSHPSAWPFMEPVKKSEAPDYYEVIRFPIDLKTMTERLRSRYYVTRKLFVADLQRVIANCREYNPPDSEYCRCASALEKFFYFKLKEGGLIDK

| SMILES | Potency | activity change, negative = inhibition |
| --- | --- | --- |
| O=C(CNC(=O)c1cccnc1)N/N=C/c1ccc(O)cc1O | inconclusive: 0.708 µM [inhibitor, single point] | – |
| C/C=C(\C)CN1CCN(c2ccc(C)cc2)CC1 | inconclusive: 3.55 µM [inhibitor, single point] | – |
| Cc1cc(C)cc(Nc2nc3ccccc3c(=O)[nH]2)c1 | inconclusive: 0.708 µM [inhibitor, single point] | – |
| c1ccc(-c2n[nH]c(-c3ccccc3)c2-c2nc3ccccc3[nH]2)cc1 | inconclusive: 1.12 µM [inhibitor, full curve] | – |
| O=C(C1=NN[C@@H]2C(=O)N(c3ccccc3C(F)(F)F)C(=O)[C@H]12)C(c1ccccc1)c1ccccc1 | inconclusive: 39.8 µM [inhibitor, single point] | – |
| Oc1ccc(/C=N/Nc2ccc(C(F)(F)F)cn2)c(O)c1 | inconclusive: 0.891 µM [inhibitor, full curve, poor fit] | – |
| CCOC(=O)/C(C#N)=N/Nc1c(C)n(C)n(-c2ccccc2)c1=O | inconclusive: 31.6 µM [inhibitor, single point] | – |
| Cc1cccc(-c2nc(CS(=O)CC(=O)NC3CCCC(C)C3C)c(C)o2)c1 (configuration not stated) | inconclusive: 8.91 µM [inhibitor, single point] | – |
| Cc1ccc(C(=O)CSc2ncn[nH]2)cc1 | inconclusive: 39.8 µM [inhibitor, single point] | – |
| O=c1c(CCc2ccccc2)nc2cncnc2n1C1CC1 | inactive | – |
| COc1ccc(-c2noc(CNC(=O)CCN3C(=O)[C@H]4CC=CC[C@H]4C3=O)n2)cc1 | inconclusive: 25.1 µM [inhibitor, partial curve, poor fit] | – |
| CC(Oc1ccccc1)C(=O)N1CCCc2ccccc21 (configuration not stated) | inconclusive: 3.55 µM [inhibitor, single point] | – |
| COc1cc(OC)cc(C(C(=O)NCc2ccccc2)N(Cc2ccco2)C(=O)c2ccno2)c1 (configuration not stated) | inconclusive: 39.8 µM [inhibitor, single point] | – |
| CCCCCCCCOc1ccc(C2OC34CCCCC3C(C#N)(C#N)C2(C#N)C(=N)O4)cc1 (configuration not stated) | inactive | – |
| CCOc1ccc(S(=O)(=O)N(C(=O)c2ccncc2)c2ccc3oc(C)c(C(=O)OC)c3c2)cc1 | inactive | – |
| Cc1nn(C)cc1/C=C1\CCC/C(=C\c2cn(C)nc2C)C1=O | – | inconclusive: -31.7% [inhibitor] |
| CCC[C@@H](OS(N)(=O)=O)[C@@H](Cc1ccccc1)C(=O)OCC | inconclusive: 3.98 µM [inhibitor, single point] | – |
| Cc1ccc(S(=O)(=O)Cc2ccc(C(=O)N3CCN(Cc4ccccc4)CC3)o2)cc1 | inconclusive: 22.4 µM [inhibitor, single point] | – |
| NNC(=O)COc1cccc(Oc2ccccc2)c1 | inactive | – |
| O=C(O)CN1C(=O)/C(=C2\C(=O)N(Cc3ccccc3Cl)c3ccccc32)SC1=S | inconclusive: 25.1 µM [inhibitor, single point] | – |
| COc1ccc(CC(=O)n2[nH]c(=O)ccc2=O)cc1OC | inconclusive: 22.4 µM [inhibitor, partial curve] | – |

Laid out differently: entries from further up.
SMILES	Potency	activity change, negative = inhibition
Cc1cc(C)cc(Nc2nc3ccccc3c(=O)[nH]2)c1	inconclusive: 0.708 µM [inhibitor, single point]	–
c1ccc(-c2n[nH]c(-c3ccccc3)c2-c2nc3ccccc3[nH]2)cc1	inconclusive: 1.12 µM [inhibitor, full curve]	–

Further entries

| SMILES | Potency | activity change, negative = inhibition |
| --- | --- | --- |
| O=C(Nc1ccc(O)c(-c2nc3ccccc3o2)c1)C1(c2ccc(Br)cc2)CCCC1 | inconclusive: 25.1 µM [inhibitor, partial curve] | – |
| O=C1Nc2ccccc2C(=O)N2C[C@@H](O)C[C@H]12 | inconclusive: 3.16 µM [inhibitor, partial curve] | – |
| CN(C)c1ncc2nc(CCc3ccccc3)c(=O)n(Cc3ccc(F)cc3)c2n1 | inconclusive: 10 µM [inhibitor, partial curve] | – |
| CC(C)C1COc2cc3oc(=O)ccc3cc2O1 (configuration not stated) | inactive | – |
| O=C(Nc1ccc(N2CCCC2)c(Cl)c1)c1ccccc1[N+](=O)[O-] | inconclusive: 3.98 µM [inhibitor, single point] | – |
| CC[N+]1(C)[C@@H]2CC[C@H]1CC(OC(=O)[C@H]1CCC(C(=O)OC3C[C@H]4CC[C@@H](C3)[N+]4(C)CC)(c3ccccc3)c3ccccc31)C2 (some centres not stated) | inactive | – |
| COc1ccc(-c2nnc(Nc3ccc(CC(N)=O)cc3)c3ccccc23)cc1 | inconclusive: 39.8 µM [inhibitor, single point] | – |
| CC(/C=C/c1ccc(N(C)C)cc1)=N\N=C(/N)SC1CC(=O)N(c2ccc(C(=O)O)cc2)C1=O (configuration not stated) | inconclusive: 3.55 µM [inhibitor, single point] | – |
| COc1cccc(Nc2ncc3nc(CCc4ccccc4)c(=O)n(CCC#N)c3n2)c1 | inconclusive: 39.8 µM [inhibitor, single point] | – |
| COc1ccc(C(=O)N2CCN(c3ccc(C)c(C)c3)CC2)cc1OC | inactive | – |
| CCn1cc(C(=O)NCCc2ccccc2)c(=O)c2cc(F)c(N3CCN(C)CC3)cc21 | inconclusive: 8.91 µM [inhibitor, partial curve] | – |
| Cc1cccc(NC(=O)COC(=O)CCc2c[nH]c3ccccc23)c1 | inactive | – |
| O=C(CSc1nc(Cc2ccccc2)nc2ccccc12)Nc1nc2c(s1)CCCC2 | inconclusive: 39.8 µM [inhibitor, single point] | – |
| O=C(NNC(=S)NC(=O)c1cccnc1)c1ccc(F)cc1 | inconclusive: 7.08 µM [inhibitor, full curve] | – |
| CN(C)C(CNC(=O)c1cc(-c2ccco2)nc2ccccc12)c1ccccc1 (configuration not stated) | inconclusive: 14.1 µM [inhibitor, partial curve] | – |
| N#CCCn1c(=O)cnc2cnc(N3CCOCC3)nc21 | inactive | – |
| COc1ccccc1OCC(=O)NCC1CCCN(C(=O)c2ccccc2C(C)=O)C1 (configuration not stated) | inconclusive: 39.8 µM [inhibitor, partial curve, poor fit] | – |
| O=C(Cc1ccsc1)N1CCN(S(=O)(=O)c2cc(C(F)(F)F)cc(C(F)(F)F)c2)CC1 | inconclusive: 3.55 µM [inhibitor, full curve] | – |
| CC(=O)Nc1ccc(S(=O)(=O)Nc2ccc(S(=O)(=O)Nc3ncccn3)cc2)cc1 | inactive | – |
| CC1=CC(C)(C)n2c(O)c(N=NC(N)=S)c3c(C)c(C)cc1c32 | inactive | – |
| Cc1cc(C)c2c(=O)n(CC(=O)N3CCC(N4CCCCC4)CC3)sc2n1 | active: 31.6 µM | – |

Reference: PubChem BioAssay AID504327 (National Center for Advancing Translational Sciences (NCATS), 2011)
